From the supplement of paper PMC6411743
± gives the standard deviation of the averaged measurements. The entries are a selection whose mix differs from that of the whole data set.

The chains behind the UniProt entries cited, without tags or fusion partners. Where a name states a change or a piece, a line headed by the entry shows the natural chain unless it says otherwise.
UniProt Q96AP0: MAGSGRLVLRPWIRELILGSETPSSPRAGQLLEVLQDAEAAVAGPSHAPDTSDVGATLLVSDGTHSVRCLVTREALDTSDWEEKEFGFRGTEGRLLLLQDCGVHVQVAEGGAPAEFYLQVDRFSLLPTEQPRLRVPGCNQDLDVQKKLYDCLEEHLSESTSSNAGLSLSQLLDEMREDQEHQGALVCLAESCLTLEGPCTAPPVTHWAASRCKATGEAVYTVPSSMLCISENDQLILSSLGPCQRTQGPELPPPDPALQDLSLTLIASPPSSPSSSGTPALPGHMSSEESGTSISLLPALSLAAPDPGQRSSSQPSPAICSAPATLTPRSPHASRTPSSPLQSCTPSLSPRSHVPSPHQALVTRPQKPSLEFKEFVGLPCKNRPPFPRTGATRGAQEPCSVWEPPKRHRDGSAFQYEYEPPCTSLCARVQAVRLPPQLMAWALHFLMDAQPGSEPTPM
UniProt P59780: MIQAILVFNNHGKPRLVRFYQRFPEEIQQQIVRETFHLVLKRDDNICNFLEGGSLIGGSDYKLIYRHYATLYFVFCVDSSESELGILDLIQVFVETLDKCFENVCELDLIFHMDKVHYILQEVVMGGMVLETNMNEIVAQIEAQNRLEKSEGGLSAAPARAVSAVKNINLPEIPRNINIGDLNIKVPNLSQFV
UniProt Q14839: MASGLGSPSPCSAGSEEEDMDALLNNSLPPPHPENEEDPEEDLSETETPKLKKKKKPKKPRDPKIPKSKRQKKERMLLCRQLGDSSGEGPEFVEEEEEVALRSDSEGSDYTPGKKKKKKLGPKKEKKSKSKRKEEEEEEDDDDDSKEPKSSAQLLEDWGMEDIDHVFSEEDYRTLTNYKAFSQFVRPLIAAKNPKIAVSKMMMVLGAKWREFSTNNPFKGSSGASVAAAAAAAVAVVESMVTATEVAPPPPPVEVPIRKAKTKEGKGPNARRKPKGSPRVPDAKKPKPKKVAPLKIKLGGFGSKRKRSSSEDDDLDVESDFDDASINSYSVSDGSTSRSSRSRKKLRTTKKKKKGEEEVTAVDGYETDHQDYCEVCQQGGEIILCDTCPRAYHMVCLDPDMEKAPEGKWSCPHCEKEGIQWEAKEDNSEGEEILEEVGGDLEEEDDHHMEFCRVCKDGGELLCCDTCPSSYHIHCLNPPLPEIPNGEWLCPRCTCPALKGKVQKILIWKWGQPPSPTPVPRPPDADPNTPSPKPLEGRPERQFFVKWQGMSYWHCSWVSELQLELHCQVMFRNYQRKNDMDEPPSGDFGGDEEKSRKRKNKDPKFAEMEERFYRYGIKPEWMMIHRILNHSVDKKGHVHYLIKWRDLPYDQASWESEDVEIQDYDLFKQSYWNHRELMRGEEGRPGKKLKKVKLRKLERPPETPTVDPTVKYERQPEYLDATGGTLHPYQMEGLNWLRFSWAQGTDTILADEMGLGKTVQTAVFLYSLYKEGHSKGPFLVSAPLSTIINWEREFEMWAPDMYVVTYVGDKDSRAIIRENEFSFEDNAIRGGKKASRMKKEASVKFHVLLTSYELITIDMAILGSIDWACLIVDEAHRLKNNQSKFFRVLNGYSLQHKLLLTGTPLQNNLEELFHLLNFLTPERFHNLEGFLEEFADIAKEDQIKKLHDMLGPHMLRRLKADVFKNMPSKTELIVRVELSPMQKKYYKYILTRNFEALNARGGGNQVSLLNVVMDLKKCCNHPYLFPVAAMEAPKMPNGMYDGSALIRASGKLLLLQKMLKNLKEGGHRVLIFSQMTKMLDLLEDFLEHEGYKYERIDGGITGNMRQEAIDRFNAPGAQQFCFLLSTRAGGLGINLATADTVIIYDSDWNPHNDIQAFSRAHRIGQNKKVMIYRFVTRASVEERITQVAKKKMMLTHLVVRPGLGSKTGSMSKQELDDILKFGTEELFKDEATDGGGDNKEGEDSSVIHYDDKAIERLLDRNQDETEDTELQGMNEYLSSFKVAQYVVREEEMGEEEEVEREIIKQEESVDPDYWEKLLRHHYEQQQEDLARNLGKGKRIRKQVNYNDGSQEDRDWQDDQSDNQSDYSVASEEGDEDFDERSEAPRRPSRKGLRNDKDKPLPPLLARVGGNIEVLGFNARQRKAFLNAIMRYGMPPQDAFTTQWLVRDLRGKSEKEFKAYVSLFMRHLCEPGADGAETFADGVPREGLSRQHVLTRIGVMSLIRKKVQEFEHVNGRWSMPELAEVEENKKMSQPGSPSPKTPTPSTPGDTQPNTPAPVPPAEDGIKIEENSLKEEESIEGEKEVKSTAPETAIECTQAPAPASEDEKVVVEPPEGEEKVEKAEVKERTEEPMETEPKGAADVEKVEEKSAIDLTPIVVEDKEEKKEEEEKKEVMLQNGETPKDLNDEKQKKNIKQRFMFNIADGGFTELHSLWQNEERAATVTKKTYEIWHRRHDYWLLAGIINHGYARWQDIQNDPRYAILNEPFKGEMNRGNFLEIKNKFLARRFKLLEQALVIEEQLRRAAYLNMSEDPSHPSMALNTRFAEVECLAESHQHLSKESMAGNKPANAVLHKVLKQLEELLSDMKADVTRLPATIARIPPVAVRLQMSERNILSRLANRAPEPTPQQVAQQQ
UniProt O60613, whole entry: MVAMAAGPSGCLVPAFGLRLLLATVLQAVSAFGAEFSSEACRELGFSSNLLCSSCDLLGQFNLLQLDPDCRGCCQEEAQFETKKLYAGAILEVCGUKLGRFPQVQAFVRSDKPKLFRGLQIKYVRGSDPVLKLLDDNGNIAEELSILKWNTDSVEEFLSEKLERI
UniProt Q96HA1, whole entry, looked up: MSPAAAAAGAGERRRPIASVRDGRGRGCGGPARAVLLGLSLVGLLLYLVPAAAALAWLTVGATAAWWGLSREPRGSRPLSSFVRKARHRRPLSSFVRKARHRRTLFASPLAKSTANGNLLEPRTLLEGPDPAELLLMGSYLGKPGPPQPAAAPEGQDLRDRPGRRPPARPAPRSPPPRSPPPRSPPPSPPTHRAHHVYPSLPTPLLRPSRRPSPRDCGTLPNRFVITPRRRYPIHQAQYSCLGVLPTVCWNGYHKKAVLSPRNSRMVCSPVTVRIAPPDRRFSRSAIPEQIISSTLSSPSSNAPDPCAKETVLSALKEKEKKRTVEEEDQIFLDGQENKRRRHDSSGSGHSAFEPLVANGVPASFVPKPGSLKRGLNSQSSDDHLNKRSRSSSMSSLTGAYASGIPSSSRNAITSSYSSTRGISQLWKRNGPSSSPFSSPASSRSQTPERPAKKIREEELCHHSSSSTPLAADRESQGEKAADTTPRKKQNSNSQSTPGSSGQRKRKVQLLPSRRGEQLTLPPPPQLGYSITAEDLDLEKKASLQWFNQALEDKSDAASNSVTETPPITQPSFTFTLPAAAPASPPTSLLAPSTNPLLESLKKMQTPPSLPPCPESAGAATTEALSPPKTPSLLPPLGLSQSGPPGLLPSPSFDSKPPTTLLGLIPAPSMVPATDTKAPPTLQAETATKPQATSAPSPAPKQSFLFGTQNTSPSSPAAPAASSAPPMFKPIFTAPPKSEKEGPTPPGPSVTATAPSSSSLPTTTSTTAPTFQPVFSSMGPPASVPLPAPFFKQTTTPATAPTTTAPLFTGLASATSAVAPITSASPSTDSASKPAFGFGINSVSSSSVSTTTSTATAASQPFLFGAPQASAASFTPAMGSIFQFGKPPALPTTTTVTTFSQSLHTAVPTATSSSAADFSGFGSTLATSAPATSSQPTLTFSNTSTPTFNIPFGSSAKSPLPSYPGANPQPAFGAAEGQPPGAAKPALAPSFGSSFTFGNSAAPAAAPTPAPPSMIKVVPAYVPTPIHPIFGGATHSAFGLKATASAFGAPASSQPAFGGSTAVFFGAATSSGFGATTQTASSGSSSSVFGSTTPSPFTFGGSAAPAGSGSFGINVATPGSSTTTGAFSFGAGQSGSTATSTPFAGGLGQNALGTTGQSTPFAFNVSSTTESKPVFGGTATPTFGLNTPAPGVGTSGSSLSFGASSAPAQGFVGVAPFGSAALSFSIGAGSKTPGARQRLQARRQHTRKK
UniProt O75818: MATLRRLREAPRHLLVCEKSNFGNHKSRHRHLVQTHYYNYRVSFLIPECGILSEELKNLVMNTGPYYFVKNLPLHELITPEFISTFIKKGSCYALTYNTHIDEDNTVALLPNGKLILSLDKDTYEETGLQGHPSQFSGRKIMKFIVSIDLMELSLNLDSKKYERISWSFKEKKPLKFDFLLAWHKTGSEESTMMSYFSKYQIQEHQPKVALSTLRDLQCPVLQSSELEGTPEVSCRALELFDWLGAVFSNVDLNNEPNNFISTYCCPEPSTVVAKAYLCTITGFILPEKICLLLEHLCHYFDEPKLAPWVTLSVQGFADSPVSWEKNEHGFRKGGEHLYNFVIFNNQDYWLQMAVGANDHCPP
UniProt Q9NRZ9: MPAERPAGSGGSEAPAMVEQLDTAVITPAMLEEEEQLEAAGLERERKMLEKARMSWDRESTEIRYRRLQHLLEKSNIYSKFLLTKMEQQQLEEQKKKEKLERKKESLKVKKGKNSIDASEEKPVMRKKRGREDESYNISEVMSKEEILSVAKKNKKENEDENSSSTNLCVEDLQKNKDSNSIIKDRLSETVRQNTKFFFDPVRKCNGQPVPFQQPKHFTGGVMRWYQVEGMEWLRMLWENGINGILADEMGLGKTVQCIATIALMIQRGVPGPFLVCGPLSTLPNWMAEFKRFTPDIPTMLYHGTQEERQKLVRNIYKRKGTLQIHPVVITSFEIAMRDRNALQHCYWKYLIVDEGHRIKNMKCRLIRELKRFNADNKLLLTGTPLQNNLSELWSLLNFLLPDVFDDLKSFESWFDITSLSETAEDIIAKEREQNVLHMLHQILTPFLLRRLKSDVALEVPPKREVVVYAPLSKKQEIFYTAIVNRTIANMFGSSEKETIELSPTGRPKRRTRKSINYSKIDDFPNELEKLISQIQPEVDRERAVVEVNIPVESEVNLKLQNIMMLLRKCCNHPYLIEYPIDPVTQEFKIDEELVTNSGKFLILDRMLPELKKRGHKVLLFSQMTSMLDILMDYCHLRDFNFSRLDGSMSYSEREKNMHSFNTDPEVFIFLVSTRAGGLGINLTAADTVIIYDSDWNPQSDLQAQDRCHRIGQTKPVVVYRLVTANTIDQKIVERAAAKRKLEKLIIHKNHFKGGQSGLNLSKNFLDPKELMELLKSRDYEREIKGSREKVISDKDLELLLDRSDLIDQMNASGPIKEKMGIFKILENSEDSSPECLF
UniProt Q6AI08: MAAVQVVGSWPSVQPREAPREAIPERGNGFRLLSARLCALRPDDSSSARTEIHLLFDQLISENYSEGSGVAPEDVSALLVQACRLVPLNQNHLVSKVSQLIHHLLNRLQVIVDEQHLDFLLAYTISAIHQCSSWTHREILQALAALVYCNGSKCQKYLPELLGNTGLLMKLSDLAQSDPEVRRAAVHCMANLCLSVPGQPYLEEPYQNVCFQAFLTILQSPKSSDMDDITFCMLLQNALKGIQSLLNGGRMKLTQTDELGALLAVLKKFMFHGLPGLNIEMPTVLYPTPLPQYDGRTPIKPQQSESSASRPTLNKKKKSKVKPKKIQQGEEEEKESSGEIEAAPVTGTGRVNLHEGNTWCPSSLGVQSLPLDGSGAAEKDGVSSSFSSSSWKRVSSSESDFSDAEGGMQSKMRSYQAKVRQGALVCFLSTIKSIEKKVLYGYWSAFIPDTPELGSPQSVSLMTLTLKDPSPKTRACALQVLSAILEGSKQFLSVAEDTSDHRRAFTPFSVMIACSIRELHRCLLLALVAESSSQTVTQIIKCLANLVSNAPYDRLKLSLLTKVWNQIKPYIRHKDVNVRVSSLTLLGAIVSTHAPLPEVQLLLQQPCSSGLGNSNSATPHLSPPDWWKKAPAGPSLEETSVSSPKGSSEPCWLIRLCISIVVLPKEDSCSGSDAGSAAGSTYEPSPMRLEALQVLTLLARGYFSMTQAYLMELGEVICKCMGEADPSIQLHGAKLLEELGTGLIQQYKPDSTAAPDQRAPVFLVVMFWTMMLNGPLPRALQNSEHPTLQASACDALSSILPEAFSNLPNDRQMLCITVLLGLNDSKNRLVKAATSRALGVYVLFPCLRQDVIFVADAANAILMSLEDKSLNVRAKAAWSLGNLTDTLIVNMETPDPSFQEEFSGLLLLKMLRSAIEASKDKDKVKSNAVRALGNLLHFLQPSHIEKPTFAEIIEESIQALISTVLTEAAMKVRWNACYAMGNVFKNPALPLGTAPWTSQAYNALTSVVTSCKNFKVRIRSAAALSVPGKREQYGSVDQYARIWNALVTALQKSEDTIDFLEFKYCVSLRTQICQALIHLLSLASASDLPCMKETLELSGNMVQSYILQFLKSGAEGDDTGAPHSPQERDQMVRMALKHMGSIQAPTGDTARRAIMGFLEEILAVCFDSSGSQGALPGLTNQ

Compound: Nc1ncnc2c1ncn2[C@@H]1O[C@H](COP(=O)(O)OP(=O)(O)OP(=O)(O)O)[C@@H](O)[C@H]1O [adenosine triphosphate]
Test: NP40-soluble protein abundance relative to vehicle (solubility fold change) (ratio); higher = more soluble protein in presence of ATP
Summary of the method: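 Jurkat crude lysate prepared with a Dounce homogeniser was treated at eight concentrations spanning 0.1 to 10 mM, 10 min at room temperature then 3 min at 37 °C. Solubilisation with 0.8% NP40 and benzonase and ultracentrifugation preceded TMT labelling of the supernatant for LC-MS/MS. Fold change against the detergent-processed vehicle was determined per replicate from vsn-normalised intensities, across three independent experiments.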

Target	NP40-soluble protein abundance (concentration: 1mM)	NP40-soluble protein abundance (concentration: 2mM)	NP40-soluble protein abundance (concentration: 4mM)	NP40-soluble protein abundance (concentration: 6mM)	NP40-soluble protein abundance (concentration: 8mM)	NP40-soluble protein abundance (concentration: 10mM)
A0A087WVP4|A0A087X1R1|P53814 and related entries (UniProt P53814)	1.01 ± 0.11	1.03 ± 0.2	1.09 ± 0.13	1.05 ± 0.032	0.999 ± 0.089	1.16 ± 0.064
A0A0C4DGA6|Q14527 (UniProt Q14527)	1.06 ± 0.011	1.05 ± 0.018	1.03 ± 0.003	1.07 ± 0.027	1.07 ± 0.019	1.06 ± 0.032
A0A0C4DGT6|Q96AP0 and related entries (UniProt Q96AP0)	1.126 ± 0.0098	1.1 ± 0.13	1.15 ± 0.06	1.14 ± 0.046	1.13 ± 0.041	1.23 ± 0.1
A0A0A6YYH1|H0YLI7 and related entries (UniProt Q7Z6K5+P59780+H0YLI7)	0.898 ± 0.17	1.03 ± 0.085	1.02 ± 0.013	1.046 ± 0.0048	0.971 ± 0.032	0.962 ± 0.045
A0A0C4DGG9|Q14839 and related entries (UniProt Q14839)	1.04 ± 0.012	1.013 ± 0.0054	1.01 ± 0.014	1.02 ± 0.013	1.06 ± 0.017	1.04 ± 0.026
A0A087X1G7|A0A0B4J1S4|O60613 (UniProt O60613)	0.99 ± 0.066	0.995 ± 0.037	0.993 ± 0.12	0.972 ± 0.051	0.956 ± 0.053	0.948 ± 0.054
A0A0C4DFZ2|P15289 (UniProt P15289)	0.945 ± 0.029	0.997 ± 0.023	0.991 ± 0.026	1 ± 0.022	0.941 ± 0.025	0.912 ± 0.021
A0A075B7F8|A8CG34 and related entries (UniProt Q96HA1+A8CG34)	0.918 ± 0.04	0.992 ± 0.061	1.22 ± 0.29	1.1 ± 0.065	1.13 ± 0.14	1.3 ± 0.16
A0A0C4DFM7|Q5TAX3 (UniProt Q5TAX3)	0.971 ± 0.064	0.9704 ± 0.0026	0.977 ± 0.026	1 ± 0.03	0.979 ± 0.035	0.989 ± 0.061
A0A087WTU1|A0A087X0S7|A0A0B4J2G4|A0A0C4DH00|Q15345 and related entries (UniProt Q15345)	1.02 ± 0.056	0.956 ± 0.033	1.13 ± 0.088	1.15 ± 0.12	0.983 ± 0.035	0.953 ± 0.025
A0A087X1N3|O75818 and related entries (UniProt O75818)	1.12 ± 0.085	1.06 ± 0.052	1.08 ± 0.039	1.07 ± 0.026	1.15 ± 0.037	1.14 ± 0.042
A0A0B4J1V9|Q9NRZ9 and related entries (UniProt Q9NRZ9)	1.19 ± 0.037	1.209 ± 0.0039	1.21 ± 0.028	1.21 ± 0.034	1.25 ± 0.022	1.22 ± 0.033
A0A087WXZ7|K7EIX2 and related entries (UniProt Q6AI08)	1 ± 0.069	1.02 ± 0.027	1.04 ± 0.08	1.01 ± 0.086	0.94 ± 0.088	0.994 ± 0.033
